# From the supplement of paper PMC9135407
# Several values for one entry are separate records, joined by “and”; a condition that tells them apart may be missing. Equal entries are not always repeated. Structures can show the parent of a compound that is named as a salt. ± gives the standard deviation of the averaged measurements. This is one part of the list. Baselines shift from plate to plate; read single values as rough.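 Culture-activated primary human stellate myofibroblasts, where regained lipid droplets signal inactivation. Value: share of Hoechst-counted cells above a per-plate Bodipy cutoff, in duplicate wells, with DMSO negative and nortriptyline positive controls on each plate. Hits: a control-normalized score above the plate's top-tenth-percentile nortriptyline wells, or one of a plate's three best wells. Final well concentrations are not given.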
# Tested on: primary human hepatic stellate cells (donor 1)
# Assay: percent Bodipy-positive cells; higher = more lipid droplet accumulation
# Conditions: 48 h
# [1] = library stock concentration: 3.33 mM
# [2] = library stock concentration: 10 mM
# [3] = library stock concentration: 5.3 mM
compound,measurement,setting,value
C[C@H](NC(=O)CCc1nc2ccccc2c(=O)[nH]1)c1ccccc1,percent Bodipy-positive cells,[1],32.7 ± 1.2%
same,percent Bodipy-positive cells,[2],46.2 ± 18%
CC(C)[C@H](NS(=O)(=O)c1ccc(-c2ccc(Br)cc2)cc1)C(=O)O,percent Bodipy-positive cells,[2],7.15 ± 4.3%
NCC(=O)CCC(=O)O [Aminolevulinic Acid],percent Bodipy-positive cells,[2],25.7 ± 4.6%
NCC(=O)CCC(=O)O [5-Aminolevulinic acid HCl],percent Bodipy-positive cells,[1],9.64 ± 1.8%
same,percent Bodipy-positive cells,[2],18.9 ± 2.6%
NCC(=O)CCC(=O)O [Aminolevulinic acid hydrochloride],percent Bodipy-positive cells,[2],41.3 ± 19%
COc1cc2c(cc1OC)[C@@H]1Cc3ccc(OC)c(OC)c3CN1CC2 [Rotundine],percent Bodipy-positive cells,[1],6.99 ± 3.3%
same,percent Bodipy-positive cells,[2],11.2 ± 2.2%
O=C(CCCN1CCC(O)(c2ccc(Cl)cc2)CC1)c1ccc(F)cc1 [Haloperidol hydrochloride],percent Bodipy-positive cells,[2],53.7 ± 5.8%
O=C(CCCN1CCC(O)(c2ccc(Cl)cc2)CC1)c1ccc(F)cc1 [Haloperidol HCl],percent Bodipy-positive cells,[3],40.4 ± 6.9%
O=C(CCCN1CCC(O)(c2ccc(Cl)cc2)CC1)c1ccc(F)cc1 [Haloperidol],percent Bodipy-positive cells,,68.5 ± 11%
same,percent Bodipy-positive cells,[1],60.7 ± 9.6%
same,percent Bodipy-positive cells,[3],30.39 ± 0.15%
O=C(O)C[C@H](O)C[C@H](O)/C=C/c1c(C2CC2)nc2ccccc2c1-c1ccc(F)cc1 [Pitavastatin Calcium],percent Bodipy-positive cells,[1],37.7 ± 3.1%
same,percent Bodipy-positive cells,[2],39.5 ± 5.8%
O=c1[nH]c2cc(Cl)ccc2c(O)c1-c1cccc(Oc2ccccc2)c1,percent Bodipy-positive cells,[2],19.8% and 6.88%
Cc1ccc(C)c(OCCCC(C)(C)C(=O)O)c1,percent Bodipy-positive cells,[2],26.9 ± 4.2%
Cc1ccc(C)c(OCCCC(C)(C)C(=O)O)c1 [Gemfibrozil],percent Bodipy-positive cells,,29.5 ± 4.7%
same,percent Bodipy-positive cells,[1],8.81 ± 2%
same,percent Bodipy-positive cells,library stock concentration: 8 mM,7.38% and 3.29%
same,percent Bodipy-positive cells,[2],18% and 16%
C=CCN1CCc2c(cc(O)c(O)c2Cl)C(c2ccccc2)C1 (stereo not given),percent Bodipy-positive cells,[2],55.4 ± 8.6%
CCC(CC)CNc1cc(C(=O)NCCN(C)C)cc(S(=O)(=O)Nc2ccc(OC)cc2)c1,percent Bodipy-positive cells,[2],96.9 ± 2.8%
CC(C)(C)c1cc(NC(=O)Nc2ccc(-c3cn4c(n3)sc3cc(OCCN5CCOCC5)ccc34)cc2)no1 [Quizartinib (AC220)],percent Bodipy-positive cells,[2],82.8 ± 2.9%
C[C@H]1COC2(CCN(c3nc(=O)c4cc(C(F)(F)F)cc([N+](=O)[O-])c4s3)CC2)O1 (racemic) [BTZ043 Racemate],percent Bodipy-positive cells,[1],14.2 ± 8.9%
same,percent Bodipy-positive cells,[2],15.5 ± 4.3%
CCCCCCCCCCCCCC=CC(O)C(CO)NC(=O)CCCCCCCCCCCCCCCCCCCCCCC (stereo not given) [Lignoceric Ceramide],percent Bodipy-positive cells,library stock concentration: 1 mM,7.49 ± 4.7%
"COC(=O)[C@@H](N)Cc1ccc(O)c(O)c1 [L-3,4-Dihydroxyphenylalanine methyl ester hydrochloride]",percent Bodipy-positive cells,[2],35.6 ± 7.4%
COc1ccc2c(c1)c(CC(=O)O)c(C)n2Cc1ccc(Cl)cc1 [1-(4-Chlorobenzyl)-5-methoxy-2-methylindole-3-acetic acid],percent Bodipy-positive cells,[2],29.7 ± 0.49%
C[C@]12CCC(=O)C=C1C=C[C@@H]1[C@@H]2CC[C@@]2(C)[C@H]1CC[C@@]21CCC(=O)O1 [Canrenone],percent Bodipy-positive cells,library stock concentration: 5.9 mM,8.03% and 16.5%
same,percent Bodipy-positive cells,[2],35.9 ± 3%
CCCCOc1cc(C(=O)NCCN(CC)CC)c2ccccc2n1.Cl [Dibucaine HCl],percent Bodipy-positive cells,[2],92.4 ± 1.5%
CC1(C)CC(=O)c2c(C(F)(F)F)nn(-c3ccc(C(N)=O)c(N[C@H]4CC[C@H](OC(=O)CN)CC4)c3)c2C1,percent Bodipy-positive cells,[1],74.9 ± 4.4%
CC1(C)[C@@H](O)CC[C@]2(C)[C@H]3C(=O)C=C4[C@@H]5C[C@@](C)(C(=O)O)CC[C@]5(C)CC[C@@]4(C)[C@]3(C)CC[C@@H]12 [Enoxolone],percent Bodipy-positive cells,[1],18.2 ± 7.8%
same,percent Bodipy-positive cells,[2],13.8% and 24.4%
CC(N)(Cc1ccc(O)cc1)C(=O)O (racemic) [DL-alpha-Methyl-p-tyrosine],percent Bodipy-positive cells,[2],64.6 ± 10%
O=C(NCc1cccc(O)c1)Nc1nc(-c2ccncc2)cs1,percent Bodipy-positive cells,[1],82.7 ± 11%
O=C1c2ccccc2-c2nc3nnnn3nc21 [PDK1/Akt/Flt Dual Pathway Inhibitor],percent Bodipy-positive cells,[1],98.412 ± 0.036%
COc1cc(C(=O)NC2CCN(C)CC2)ccc1Nc1ncc2c(n1)N(C1CCCC1)CC(F)(F)C(=O)N2C,percent Bodipy-positive cells,[1],74.6 ± 3.8%
same,percent Bodipy-positive cells,[2],97.4 ± 2.1%
COC(=O)CCc1ccc(OCC(O)CNC(C)C)cc1 (stereo not given) [Esmolol],percent Bodipy-positive cells,library stock concentration: 6.8 mM,6.47 ± 1.3%
COC(=O)CCc1ccc(OCC(O)CNC(C)C)cc1 (stereo not given) [Esmolol HCl],percent Bodipy-positive cells,[1],10.9 ± 0.32%
same,percent Bodipy-positive cells,[2],23.8 ± 5.1%
COC(=O)CCc1ccc(OCC(O)CNC(C)C)cc1 (stereo not given),percent Bodipy-positive cells,[2],9.597 ± 0.064%
COCCOC(=O)C1=C(C)NC(C)=C(C(=O)OC(C)C)C1c1cccc([N+](=O)[O-])c1 (stereo not given) [Nimodipine],percent Bodipy-positive cells,,9.41 ± 1.8%
same,percent Bodipy-positive cells,[1],26.5 ± 0.96%
same,percent Bodipy-positive cells,library stock concentration: 4.8 mM,11.7% and 12.7%
same,percent Bodipy-positive cells,library stock concentration: 12 mM,20.1 ± 4.3%
COCCOC(=O)C1=C(C)NC(C)=C(C(=O)OC(C)C)C1c1cccc([N+](=O)[O-])c1 (stereo not given),percent Bodipy-positive cells,[2],19.1 ± 0.88%
NCCS [Cysteamine HCl],percent Bodipy-positive cells,[1],7.44 ± 4.8%
same,percent Bodipy-positive cells,[2],25.8 ± 11%
NCCS [Cysteamine hydrochloride],percent Bodipy-positive cells,[2],26.4 ± 8.8%
NCCS [Mercaptamine hydrochloride],percent Bodipy-positive cells,[2],52.5 ± 3.5%
COc1c(C)c2c(c(O)c1C/C=C(\C)CCC(=O)OCCN1CCOCC1)C(=O)OC2 [Mycophenolate Mofetil],percent Bodipy-positive cells,[1],12.1 ± 1.8%
same,percent Bodipy-positive cells,[2],7.37 ± 3.1%
CN1C(C(=O)Nc2ccccn2)=C(O)c2ccccc2S1(=O)=O [Piroxicam],percent Bodipy-positive cells,,36.9 ± 1.8%
same,percent Bodipy-positive cells,[1],12.5 ± 2.6%
same,percent Bodipy-positive cells,library stock concentration: 6 mM,7.64% and 14.5%
same,percent Bodipy-positive cells,library stock concentration: 15.1 mM,13.1 ± 2.3%

# Exported with bars between the fields: part of the list above.
compound | measurement | setting | value
COc1cc(C(=O)NC2CCN(C)CC2)ccc1Nc1ncc2c(n1)N(C1CCCC1)CC(F)(F)C(=O)N2C | percent Bodipy-positive cells | [1] | 74.6 ± 3.8%
COCCOC(=O)C1=C(C)NC(C)=C(C(=O)OC(C)C)C1c1cccc([N+](=O)[O-])c1 (stereo not given) [Nimodipine] | percent Bodipy-positive cells |  | 9.41 ± 1.8%
